The list shows only some results of the screen, not a fair sample: it gathers tests that were run many times, whatever their T/C, doses with no T/C, and many T/C values between a quarter and a half above the control. Other doses and runs of a compound stand elsewhere. T/C gives the treated animals as a percentage of the vehicle group. Some entries give survivors of the animals treated and no T/C: the source holds a T/C of zero for them, seemingly a mark for toxic or unscored doses. Some survivor counts are full or nearly so, which does not show that the dose was tolerated: the source hardly ever lists a survival T/C far under the control, and the zero likely stands for such cases as well. Counts of survivors are from the toxicity check (mostly the fifth day) where no day follows; animals may have died later. Schedule codes are those of the source, read here as Q, the interval in days (D) or hours (H), X, the number of doses. Some schedule codes hold Z or #, which are not explained here. Some structures stand for samples that the source files as different forms (salt, stereo form or complex); doses refer to the form tested. Where survival is the endpoint, this PubChem deposit counts one and a half times the control or more as active, and values a quarter to a half above the control carry no call in these data; other NCI protocols may use other cut-offs.
Test system: L1210 leukemia ip in BDF1 mice, survival T/C
Test: NCI In Vivo Anticancer Drug Screen. Data for tumor model L1210 Leukemia (intraperitoneal) in B6D2F1 (BDF1) mice
Conditions: T/C endpoint: mean survival time, higher T/C = longer survival
[1] = dose: 100.0 mg/kg/injection, schedule: Q01DX001 (ip), vehicle: carboxymethylcellulose (CMC)
[2] = dose: 600.0 mg/kg/injection, schedule: Q01DX001 (ip), vehicle: carboxymethylcellulose (CMC)
[3] = dose: 100.0 mg/kg/injection, schedule: Q01DX009 (ip), vehicle: saline with Tween-80
[4] = dose: 200.0 mg/kg/injection, schedule: Q01DX009 (ip), vehicle: saline with Tween-80
[5] = dose: 200.0 mg/kg/injection, schedule: Q01DX009 (ip), vehicle: Klucel (hydroxypropylcellulose) (HPC)
[6] = dose: 150.0 mg/kg/injection, schedule: Q01DX001 (ip), vehicle: saline
[7] = dose: 300.0 mg/kg/injection, schedule: Q01DX001 (ip), vehicle: saline
[8] = dose: 100.0 mg/kg/injection, schedule: Q04DX003 (ip), vehicle: saline with Tween-80
[9] = dose: 200.0 mg/kg/injection, schedule: Q04DX003 (ip), vehicle: saline with Tween-80
[10] = dose: 400.0 mg/kg/injection, schedule: Q04DX003 (ip), vehicle: acetone
[11] = dose: 400.0 mg/kg/injection, schedule: Q04DX003 (ip), vehicle: saline with Tween-80
[12] = dose: 400.0 mg/kg/injection, schedule: Q04DX003 (ip), vehicle: saline
[13] = dose: 200.0 mg/kg/injection, schedule: Q04DX003 (ip), vehicle: saline

## O=NN(CCCl)C(=O)Nc1ccc2ccccc2c1
dose: 12.5 mg/kg/injection, schedule: Q01DX001 (ip), vehicle: carboxymethylcellulose (CMC)
  survivor count: 6 of 6
dose: 25.0 mg/kg/injection, schedule: Q01DX001 (ip), vehicle: carboxymethylcellulose (CMC)
  survivor count: 6 of 6
dose: 50.0 mg/kg/injection, schedule: Q01DX001 (ip), vehicle: carboxymethylcellulose (CMC)
  T/C: 145 % of control
[1]
  T/C: 147 % of control
dose: 500.0 mg/kg/injection, schedule: Q01DX001 (ip), vehicle: carboxymethylcellulose (CMC)
  survivor count: 6 of 6
[2]
  survivor count: 6 of 6
dose: 800.0 mg/kg/injection, schedule: Q01DX001 (ip), vehicle: carboxymethylcellulose (CMC)
  survivor count: 5 of 6
dose: 1000.0 mg/kg/injection, schedule: Q01DX001 (ip), vehicle: carboxymethylcellulose (CMC)
  survivor count: 5 of 6

## c1ccc(OCCN2CC2)nc1
[1]
  survivor count: 2 of 6
dose: 200.0 mg/kg/injection, schedule: Q01DX001 (ip), vehicle: carboxymethylcellulose (CMC)
  survivor count: 0 of 6
dose: 400.0 mg/kg/injection, schedule: Q01DX001 (ip), vehicle: carboxymethylcellulose (CMC)
  survivor count: 0 of 6

## O=C(CNC(=O)c1ccc(Cl)cc1Cl)N/N=C/c1cccc([N+](=O)[O-])c1
dose: 25.0 mg/kg/injection, schedule: Q01DX009 (ip), vehicle: saline with Tween-80
  survivor count: 3 of 3
dose: 50.0 mg/kg/injection, schedule: Q01DX009 (ip), vehicle: saline with Tween-80
  survivor count: 3 of 3
[3]
  survivor count: 1 of 3
[4]
  survivor count: 1 of 3

## CC(N)C(=O)c1ccccc1 (stereo not drawn)
dose: 200.0 mg/kg/injection, schedule: Q01DX009 (ip), vehicle: saline
  survivor count: 3 of 6

## Nc1nc(N)c(CCCCc2ccccc2)c(N)n1
dose: 100.0 mg/kg/injection, schedule: Q01DX Z (ip), vehicle: carboxymethylcellulose (CMC)
  survivor count: 1 of 6
[5]
  survivor count: 0 of 3
dose: 200.0 mg/kg/injection, schedule: Q01DX Z (ip), vehicle: carboxymethylcellulose (CMC)
  survivor count: 0 of 6
dose: 400.0 mg/kg/injection, schedule: Q01DX Z (ip), vehicle: carboxymethylcellulose (CMC)
  survivor count: 0 of 6

## S=C(Cc1ccc2ccccc2c1)N1CCOCC1
dose: 200.0 mg/kg/injection, schedule: Q01DX001 (ip), vehicle: saline with Tween-80
  survivor count: 6 of 6
dose: 400.0 mg/kg/injection, schedule: Q01DX001 (ip), vehicle: saline with Tween-80
  survivor count: 6 of 6

## Cc1ccc([S+](c2ccccc2)c2cc(C)ccc2C)cc1 (stereo not drawn)
dose: 10.0 mg/kg/injection, schedule: Q01DX001 (ip), vehicle: carboxymethylcellulose (CMC)
  survivor count: 2 of 6
dose: 15.0 mg/kg/injection, schedule: Q01DX001 (ip), vehicle: carboxymethylcellulose (CMC)
  survivor count: 0 of 6
dose: 30.0 mg/kg/injection, schedule: Q01DX001 (ip), vehicle: carboxymethylcellulose (CMC)
  survivor count: 0 of 6
dose: 60.0 mg/kg/injection, schedule: Q01DX001 (ip), vehicle: carboxymethylcellulose (CMC)
  survivor count: 0 of 6
dose: 75.0 mg/kg/injection, schedule: Q01DX001 (ip), vehicle: carboxymethylcellulose (CMC)
  survivor count: 0 of 6
dose: 150.0 mg/kg/injection, schedule: Q01DX001 (ip), vehicle: carboxymethylcellulose (CMC)
  survivor count: 0 of 6
dose: 300.0 mg/kg/injection, schedule: Q01DX001 (ip), vehicle: carboxymethylcellulose (CMC)
  survivor count: 0 of 6

## Cn1c(=O)c2c(nc(NCC[N+](C)(C)C)n2C)n(C)c1=O
dose: 60.0 mg/kg/injection, schedule: Q01DX001 (ip), vehicle: saline
  survivor count: 0 of 6
dose: 75.0 mg/kg/injection, schedule: Q01DX001 (ip), vehicle: saline
  survivor count: 0 of 6
[6]
  survivor count: 0 of 6
[7]
  survivor count: 0 of 6

## O=C1c2cccc3cccc(c23)C1(Br)Br
dose: 300.0 mg/kg/injection, schedule: Q01DX001 (ip), vehicle: other
  survivor count: 2 of 5

## C1=C(c2ccccc2)C(c2ccccc2)c2ccccc21 (stereo not drawn)
[8]
  survivor count: 5 of 6
[9]
  survivor count: 6 of 6

## O=S(=O)(/C=C\c1ccccc1)c1ccccc1
[10]
  survivor count: 2 of 6

## CNC/C(C)=C/Br
[10]
  survivor count: 2 of 6
[11]
  survivor count: 2 of 6

## N#CCCN1CCCCCC1
dose: 120.0 mg/kg/injection, schedule: Q04DX003 (ip), vehicle: saline with Tween-80
  survivor count: 0 of 6

## CCN(C(=O)N(CCCl)N=O)C1CCCCC1
[6]
  survivor count: 3 of 6
[7]
  survivor count: 0 of 6

## C[C@@H]1O[C@@H](O[C@H]2CC[C@]3(C=O)[C@H]4CC[C@]5(C)[C@@H](c6ccc(=O)oc6)CC[C@]5(O)[C@@H]4CC[C@]3(O)C2)[C@H](O)[C@H](O)[C@H]1O[C@@H]1O[C@H](CO)[C@@H](O)[C@H](O)[C@H]1O
dose: 20.0 mg/kg/injection, schedule: Q01DX001 (ip), vehicle: carboxymethylcellulose (CMC)
  survivor count: 0 of 4
dose: 40.0 mg/kg/injection, schedule: Q01DX001 (ip), vehicle: carboxymethylcellulose (CMC)
  survivor count: 0 of 4

## C/C=C/c1ccc(OCC)c(OC)c1
[12]
  survivor count: 6 of 6

## c1ccc([Si]2(c3ccccc3)O[Si](c3ccccc3)(c3ccccc3)O[Si](c3ccccc3)(c3ccccc3)O2)cc1
[7]
  survivor count: 6 of 6

## CCCCC(N)P(=O)(O)O (stereo not drawn)
dose: 100.0 mg/kg/injection, schedule: Q04DX002 (ip), vehicle: saline
  survivor count: 4 of 4
dose: 200.0 mg/kg/injection, schedule: Q04DX002 (ip), vehicle: saline
  survivor count: 2 of 4
dose: 400.0 mg/kg/injection, schedule: Q04DX002 (ip), vehicle: saline
  survivor count: 1 of 4

## O=C(O)C(O)COc1ccc(Cl)cc1Cl (stereo not drawn)
[13]
  survivor count: 3 of 6

## CC(C)OCCSP(SCCOC(C)C)SCCOC(C)C
[8]
  survivor count: 6 of 6
[9]
  survivor count: 1 of 6
[11]
  survivor count: 2 of 6

## COc1ccc(NC(=O)Nc2ccc(C3=NCCCN3)cc2)cc1NC(=O)Nc1ccc(C2=NCCCN2)cc1
dose: 125.0 mg/kg/injection, schedule: Q01DX Z (ip), vehicle: carboxymethylcellulose (CMC)
  T/C: 142 % of control
dose: 500.0 mg/kg/injection, schedule: Q01DX Z (ip), vehicle: carboxymethylcellulose (CMC)
  survivor count: 0 of 6

## c1ccc(CNNC2=NCCN2)cc1
dose: 200.0 mg/kg/injection, schedule: Q01DX001 (ip), vehicle: saline
  survivor count: 1 of 6

## CCOC(=O)NN1C(=O)c2cccc3c([N+](=O)[O-])ccc(c23)C1=O
dose: 100.0 mg/kg/injection, schedule: Q01DX009 (ip), vehicle: Klucel (hydroxypropylcellulose) (HPC)
  survivor count: 4 of 6
[5]
  survivor count: 1 of 6
dose: 400.0 mg/kg/injection, schedule: Q01DX009 (ip), vehicle: Klucel (hydroxypropylcellulose) (HPC)
  survivor count: 0 of 6

## CCCCC(CC)C1NC(=O)N(SC(Cl)(Cl)Cl)C1=O (stereo not drawn)
[3]
  survivor count: 0 of 3
[4]
  survivor count: 0 of 3

## O=C(O)/C=C\c1c[nH]c2nccnc12
dose: 100.0 mg/kg/injection, schedule: Q01DX009 (ip), vehicle: saline
  survivor count: 3 of 6
[13]
  survivor count: 0 of 6
[12]
  survivor count: 0 of 6

## CCOCc1ccc(O)c2ncccc12
[2]
  survivor count: 2 of 6

## N#Cc1oc2ccccc2c1O
[9]
  survivor count: 4 of 6
[11]
  survivor count: 0 of 6

## Cc1cc(I)ccc1NC(=S)Nc1ccccc1F
[11]
  survivor count: 3 of 6

## OC1CC2C3CCC(C3)C2C1O (stereo not drawn)
[11]
  survivor count: 6 of 6

## CCNc1ccc(/C=C2\C=Cc3ccccc32)cc1
[5]
  survivor count: 5 of 6
dose: 300.0 mg/kg/injection, schedule: Q01DX001 (ip), vehicle: olive oil, sesame oil, peanut oil
  survivor count: 2 of 6

## O=C1CC=C2C3CC4N(CCC45c4ccccc4N1C25)C/C3=C\CBr (stereo not drawn)
dose: 18.75 mg/kg/injection, schedule: Q01DX001 (ip), vehicle: other
  survivor count: 2 of 6
dose: 37.5 mg/kg/injection, schedule: Q01DX001 (ip), vehicle: other
  survivor count: 0 of 6
